PubChem BioAssay AID1508597 | Cure First – 2020
The deposit covers about 2,100 reagents; below is an unselected part. 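Calls flag viability under 80% in either arm, not effects specific to rucaparib; the reference for percent is not stated.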 Not stated in the record: the 100% reference.

Purpose: 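Knock-downs altering ovarian cancer cell survival with or without PARP inhibitor rucaparib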 (primary screen)
System: human ovarian carcinoma lines grown from tumours: OCI-P5x (papillary serous) and OCI-C5x (clear cell)
Reagent: siRNA pool against human genes, 1.25 pmol siRNA per well
Timing: 72 h or 96 h, depending on the cell culture
Challenge: rucaparib 20 µM (about IC30) or vehicle, present until read-out
Measured: 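ATP luminescence measured at 72 or 96 h according to the culture, then normalised and expressed as percent viability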
Direction: viability, normalised: higher = more viable cells remaining
Rule for the call: 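Active when normalised viability falls below 80 percent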
Calls: active = viability under 80%; inactive = viability 80% or more

NAP1L2, rucaparib or vehicle Rucaparib, cell line OCI-C5x (clear cell), technical replicate 1 — viability, normalised (%) = 75.5; Outcome = active
NAP1L2, rucaparib or vehicle Rucaparib, cell line OCI-C5x (clear cell), technical replicate 2 — viability, normalised (%) = 41.2; Outcome = active
NAP1L2, rucaparib or vehicle Rucaparib, cell line OCI-C5x (clear cell), technical replicate 3 — viability, normalised (%) = 33; Outcome = active
NAP1L2, rucaparib or vehicle Rucaparib, cell line OCI-P5x (serous), technical replicate 1 — viability, normalised (%) = 45.8; Outcome = active
NAP1L2, rucaparib or vehicle Rucaparib, cell line OCI-P5x (serous), technical replicate 2 — viability, normalised (%) = 49.4; Outcome = active
NAP1L2, rucaparib or vehicle Rucaparib, cell line OCI-P5x (serous), technical replicate 3 — viability, normalised (%) = 44.7; Outcome = active
NAP1L2, rucaparib or vehicle Vehicle, cell line OCI-C5x (clear cell), technical replicate 1 — viability, normalised (%) = 52.8; Outcome = active
NAP1L2, rucaparib or vehicle Vehicle, cell line OCI-C5x (clear cell), technical replicate 2 — viability, normalised (%) = 40; Outcome = active
NAP1L2, rucaparib or vehicle Vehicle, cell line OCI-C5x (clear cell), technical replicate 3 — viability, normalised (%) = 51.7; Outcome = active
NAP1L2, rucaparib or vehicle Vehicle, cell line OCI-P5x (serous), technical replicate 1 — viability, normalised (%) = 53.9; Outcome = active
NAP1L2, rucaparib or vehicle Vehicle, cell line OCI-P5x (serous), technical replicate 2 — viability, normalised (%) = 54.2; Outcome = active
NAP1L2, rucaparib or vehicle Vehicle, cell line OCI-P5x (serous), technical replicate 3 — viability, normalised (%) = 115; Outcome = inactive
UPF1, rucaparib or vehicle Rucaparib, cell line OCI-C5x (clear cell), technical replicate 1 — viability, normalised (%) = 48.5; Outcome = active
UPF1, rucaparib or vehicle Rucaparib, cell line OCI-C5x (clear cell), technical replicate 2 — viability, normalised (%) = 43.5; Outcome = active
UPF1, rucaparib or vehicle Rucaparib, cell line OCI-C5x (clear cell), technical replicate 3 — viability, normalised (%) = 30.6; Outcome = active
UPF1, rucaparib or vehicle Rucaparib, cell line OCI-P5x (serous), technical replicate 1 — viability, normalised (%) = 63.8; Outcome = active
UPF1, rucaparib or vehicle Rucaparib, cell line OCI-P5x (serous), technical replicate 2 — viability, normalised (%) = 70.3; Outcome = active
UPF1, rucaparib or vehicle Rucaparib, cell line OCI-P5x (serous), technical replicate 3 — viability, normalised (%) = 47.5; Outcome = active
UPF1, rucaparib or vehicle Vehicle, cell line OCI-C5x (clear cell), technical replicate 1 — viability, normalised (%) = 83.6; Outcome = inactive
UPF1, rucaparib or vehicle Vehicle, cell line OCI-C5x (clear cell), technical replicate 2 — viability, normalised (%) = 48.2; Outcome = active
UPF1, rucaparib or vehicle Vehicle, cell line OCI-C5x (clear cell), technical replicate 3 — viability, normalised (%) = 30.7; Outcome = active
UPF1, rucaparib or vehicle Vehicle, cell line OCI-P5x (serous), technical replicate 1 — viability, normalised (%) = 65.1; Outcome = active
UPF1, rucaparib or vehicle Vehicle, cell line OCI-P5x (serous), technical replicate 2 — viability, normalised (%) = 51.8; Outcome = active
UPF1, rucaparib or vehicle Vehicle, cell line OCI-P5x (serous), technical replicate 3 — viability, normalised (%) = 53.3; Outcome = active
